# Test results: the supplement of paper PMC10849652
# The chains behind the UniProt entries cited, without tags or fusion partners. Where a name states a change or a piece, a line headed by the entry shows the natural chain unless it says otherwise.
# UniProt O94851, whole entry, looked up: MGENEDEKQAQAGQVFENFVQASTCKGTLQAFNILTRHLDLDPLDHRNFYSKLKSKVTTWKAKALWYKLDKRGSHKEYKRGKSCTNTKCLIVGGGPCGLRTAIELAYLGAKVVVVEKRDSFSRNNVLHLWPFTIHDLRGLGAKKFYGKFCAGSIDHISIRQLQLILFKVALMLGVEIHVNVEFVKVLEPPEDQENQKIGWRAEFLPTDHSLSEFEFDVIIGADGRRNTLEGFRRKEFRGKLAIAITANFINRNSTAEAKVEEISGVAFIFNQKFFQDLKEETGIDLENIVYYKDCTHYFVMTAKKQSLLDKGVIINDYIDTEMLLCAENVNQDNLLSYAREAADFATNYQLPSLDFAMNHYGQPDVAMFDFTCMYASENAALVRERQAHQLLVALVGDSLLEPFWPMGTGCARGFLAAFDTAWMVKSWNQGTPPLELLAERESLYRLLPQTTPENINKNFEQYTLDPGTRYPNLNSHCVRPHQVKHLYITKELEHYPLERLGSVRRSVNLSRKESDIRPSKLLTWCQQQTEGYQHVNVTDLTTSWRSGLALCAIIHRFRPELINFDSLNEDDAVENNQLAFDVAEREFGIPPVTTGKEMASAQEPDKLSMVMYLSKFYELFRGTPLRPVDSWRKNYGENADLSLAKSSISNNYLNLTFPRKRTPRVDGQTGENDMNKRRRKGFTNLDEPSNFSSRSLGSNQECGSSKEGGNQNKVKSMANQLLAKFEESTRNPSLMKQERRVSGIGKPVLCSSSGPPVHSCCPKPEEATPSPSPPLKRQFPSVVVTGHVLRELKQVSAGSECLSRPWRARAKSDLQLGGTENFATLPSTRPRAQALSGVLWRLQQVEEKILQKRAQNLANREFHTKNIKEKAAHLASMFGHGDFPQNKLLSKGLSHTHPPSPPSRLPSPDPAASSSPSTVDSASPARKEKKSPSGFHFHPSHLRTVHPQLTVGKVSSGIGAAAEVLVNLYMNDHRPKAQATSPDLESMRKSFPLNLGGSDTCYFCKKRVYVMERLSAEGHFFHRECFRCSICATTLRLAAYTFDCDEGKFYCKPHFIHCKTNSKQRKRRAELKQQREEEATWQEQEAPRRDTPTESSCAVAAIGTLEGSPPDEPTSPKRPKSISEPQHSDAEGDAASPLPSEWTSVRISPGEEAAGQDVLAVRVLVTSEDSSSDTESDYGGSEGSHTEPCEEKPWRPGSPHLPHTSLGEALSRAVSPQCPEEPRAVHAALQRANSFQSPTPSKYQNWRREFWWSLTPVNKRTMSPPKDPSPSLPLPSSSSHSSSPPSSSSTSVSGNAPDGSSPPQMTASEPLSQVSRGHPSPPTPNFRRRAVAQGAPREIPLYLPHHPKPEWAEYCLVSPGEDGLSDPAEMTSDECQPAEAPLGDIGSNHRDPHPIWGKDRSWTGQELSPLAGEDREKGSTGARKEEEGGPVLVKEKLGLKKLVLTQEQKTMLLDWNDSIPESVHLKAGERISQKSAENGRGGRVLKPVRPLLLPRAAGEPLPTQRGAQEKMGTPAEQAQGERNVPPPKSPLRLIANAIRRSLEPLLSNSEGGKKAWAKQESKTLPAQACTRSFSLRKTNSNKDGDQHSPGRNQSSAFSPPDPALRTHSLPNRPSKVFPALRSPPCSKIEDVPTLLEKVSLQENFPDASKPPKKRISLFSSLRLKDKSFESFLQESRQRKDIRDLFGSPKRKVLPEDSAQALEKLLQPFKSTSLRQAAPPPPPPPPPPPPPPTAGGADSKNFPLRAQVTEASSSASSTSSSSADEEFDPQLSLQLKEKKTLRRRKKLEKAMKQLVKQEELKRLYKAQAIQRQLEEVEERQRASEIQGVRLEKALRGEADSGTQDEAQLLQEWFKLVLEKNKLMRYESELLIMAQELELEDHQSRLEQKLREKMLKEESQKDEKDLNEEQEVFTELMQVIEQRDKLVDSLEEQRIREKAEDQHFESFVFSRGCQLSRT
# UniProt O96033: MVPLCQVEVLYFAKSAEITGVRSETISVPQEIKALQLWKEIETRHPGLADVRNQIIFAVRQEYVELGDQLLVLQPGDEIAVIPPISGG
# UniProt Q8NBR6: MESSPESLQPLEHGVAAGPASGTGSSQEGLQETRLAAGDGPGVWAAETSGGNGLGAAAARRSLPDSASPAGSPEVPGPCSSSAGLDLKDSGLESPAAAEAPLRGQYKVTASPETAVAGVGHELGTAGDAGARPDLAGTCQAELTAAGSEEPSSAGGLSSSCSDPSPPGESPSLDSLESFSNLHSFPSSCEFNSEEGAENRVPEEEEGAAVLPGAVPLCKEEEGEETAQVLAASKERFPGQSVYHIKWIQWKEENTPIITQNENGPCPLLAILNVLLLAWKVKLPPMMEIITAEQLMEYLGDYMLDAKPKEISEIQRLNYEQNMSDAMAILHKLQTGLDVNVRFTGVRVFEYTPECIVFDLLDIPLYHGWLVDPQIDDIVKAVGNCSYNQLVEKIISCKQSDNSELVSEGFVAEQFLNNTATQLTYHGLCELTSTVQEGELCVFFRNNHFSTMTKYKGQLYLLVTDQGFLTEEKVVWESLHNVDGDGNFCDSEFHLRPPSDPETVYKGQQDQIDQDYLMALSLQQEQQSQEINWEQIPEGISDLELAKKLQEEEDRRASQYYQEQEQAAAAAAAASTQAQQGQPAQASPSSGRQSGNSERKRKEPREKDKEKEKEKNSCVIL
# UniProt Q9Y6X9: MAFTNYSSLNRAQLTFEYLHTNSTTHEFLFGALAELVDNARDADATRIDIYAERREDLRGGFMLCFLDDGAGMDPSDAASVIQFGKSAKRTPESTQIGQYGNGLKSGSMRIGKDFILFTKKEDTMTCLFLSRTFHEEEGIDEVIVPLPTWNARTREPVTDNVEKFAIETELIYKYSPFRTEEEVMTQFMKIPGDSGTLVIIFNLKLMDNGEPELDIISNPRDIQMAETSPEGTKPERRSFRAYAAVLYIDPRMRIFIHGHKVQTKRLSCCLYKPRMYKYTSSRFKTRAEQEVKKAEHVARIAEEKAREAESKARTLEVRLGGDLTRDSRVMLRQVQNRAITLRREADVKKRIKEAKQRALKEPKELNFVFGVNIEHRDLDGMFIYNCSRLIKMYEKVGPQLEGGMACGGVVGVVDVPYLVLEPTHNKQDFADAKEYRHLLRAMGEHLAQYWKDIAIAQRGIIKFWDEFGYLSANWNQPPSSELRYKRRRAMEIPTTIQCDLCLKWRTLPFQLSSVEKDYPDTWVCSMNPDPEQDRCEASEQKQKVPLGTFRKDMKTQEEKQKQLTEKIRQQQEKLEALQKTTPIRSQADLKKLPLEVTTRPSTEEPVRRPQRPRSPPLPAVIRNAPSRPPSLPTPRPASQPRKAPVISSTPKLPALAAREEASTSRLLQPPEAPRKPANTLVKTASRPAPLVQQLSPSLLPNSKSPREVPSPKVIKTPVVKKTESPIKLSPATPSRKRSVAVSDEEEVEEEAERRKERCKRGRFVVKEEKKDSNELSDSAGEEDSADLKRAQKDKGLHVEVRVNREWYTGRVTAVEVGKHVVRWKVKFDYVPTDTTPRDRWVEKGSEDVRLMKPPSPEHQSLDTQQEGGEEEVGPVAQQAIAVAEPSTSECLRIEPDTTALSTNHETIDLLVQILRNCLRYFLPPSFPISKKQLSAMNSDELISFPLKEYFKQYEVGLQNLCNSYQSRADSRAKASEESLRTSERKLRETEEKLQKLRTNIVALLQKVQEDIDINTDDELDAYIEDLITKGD
# UniProt Q9BU76: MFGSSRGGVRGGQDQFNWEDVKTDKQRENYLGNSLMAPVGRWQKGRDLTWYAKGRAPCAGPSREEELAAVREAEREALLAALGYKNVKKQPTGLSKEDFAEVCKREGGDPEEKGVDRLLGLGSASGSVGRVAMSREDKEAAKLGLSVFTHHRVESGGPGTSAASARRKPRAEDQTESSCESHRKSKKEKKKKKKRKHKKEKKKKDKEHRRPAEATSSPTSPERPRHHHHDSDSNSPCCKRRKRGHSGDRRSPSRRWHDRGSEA
# UniProt P40692: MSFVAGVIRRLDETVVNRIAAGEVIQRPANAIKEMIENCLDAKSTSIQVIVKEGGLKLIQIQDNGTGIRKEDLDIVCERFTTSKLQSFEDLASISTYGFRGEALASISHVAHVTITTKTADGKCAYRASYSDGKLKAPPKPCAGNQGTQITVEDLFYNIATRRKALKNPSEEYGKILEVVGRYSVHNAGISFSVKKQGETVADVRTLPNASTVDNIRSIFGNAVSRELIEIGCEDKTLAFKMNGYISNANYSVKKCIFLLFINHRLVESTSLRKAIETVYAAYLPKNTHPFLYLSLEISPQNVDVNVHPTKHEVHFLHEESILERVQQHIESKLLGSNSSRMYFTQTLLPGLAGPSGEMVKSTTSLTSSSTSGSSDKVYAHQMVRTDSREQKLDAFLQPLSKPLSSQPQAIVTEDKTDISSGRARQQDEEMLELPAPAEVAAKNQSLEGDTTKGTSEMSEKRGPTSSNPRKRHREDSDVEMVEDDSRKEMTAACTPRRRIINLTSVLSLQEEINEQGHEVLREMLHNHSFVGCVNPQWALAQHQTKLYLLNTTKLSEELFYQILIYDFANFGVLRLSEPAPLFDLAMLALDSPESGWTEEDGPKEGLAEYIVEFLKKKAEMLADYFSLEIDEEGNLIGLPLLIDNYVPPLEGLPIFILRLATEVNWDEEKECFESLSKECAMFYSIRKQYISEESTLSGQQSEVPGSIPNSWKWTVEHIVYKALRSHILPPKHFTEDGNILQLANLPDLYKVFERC
# UniProt P39210: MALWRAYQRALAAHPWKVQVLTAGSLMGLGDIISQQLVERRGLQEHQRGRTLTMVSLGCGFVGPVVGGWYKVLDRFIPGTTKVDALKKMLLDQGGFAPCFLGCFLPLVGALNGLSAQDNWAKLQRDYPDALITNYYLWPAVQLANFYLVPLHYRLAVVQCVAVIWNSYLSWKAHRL
# UniProt P08473: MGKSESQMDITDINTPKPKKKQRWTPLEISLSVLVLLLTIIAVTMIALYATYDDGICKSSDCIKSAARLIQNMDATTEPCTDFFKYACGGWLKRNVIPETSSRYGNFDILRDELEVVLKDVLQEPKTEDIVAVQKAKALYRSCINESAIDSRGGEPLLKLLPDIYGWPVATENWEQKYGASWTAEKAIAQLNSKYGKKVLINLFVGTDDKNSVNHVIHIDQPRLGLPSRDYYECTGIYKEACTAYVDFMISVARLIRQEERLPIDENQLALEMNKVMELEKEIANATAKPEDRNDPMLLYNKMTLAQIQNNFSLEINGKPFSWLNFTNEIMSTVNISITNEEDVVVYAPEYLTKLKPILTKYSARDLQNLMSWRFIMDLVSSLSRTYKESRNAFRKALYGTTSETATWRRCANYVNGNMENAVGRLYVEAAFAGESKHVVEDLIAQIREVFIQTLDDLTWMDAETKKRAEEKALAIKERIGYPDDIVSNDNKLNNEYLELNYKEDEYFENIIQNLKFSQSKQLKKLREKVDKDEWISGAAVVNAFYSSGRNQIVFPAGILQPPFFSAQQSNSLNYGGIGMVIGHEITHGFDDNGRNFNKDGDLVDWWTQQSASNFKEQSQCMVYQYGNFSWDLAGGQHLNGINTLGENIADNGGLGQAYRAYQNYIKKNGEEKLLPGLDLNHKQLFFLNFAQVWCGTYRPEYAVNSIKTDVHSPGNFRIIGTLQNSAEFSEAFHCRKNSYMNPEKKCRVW
# UniProt Q9UJG1: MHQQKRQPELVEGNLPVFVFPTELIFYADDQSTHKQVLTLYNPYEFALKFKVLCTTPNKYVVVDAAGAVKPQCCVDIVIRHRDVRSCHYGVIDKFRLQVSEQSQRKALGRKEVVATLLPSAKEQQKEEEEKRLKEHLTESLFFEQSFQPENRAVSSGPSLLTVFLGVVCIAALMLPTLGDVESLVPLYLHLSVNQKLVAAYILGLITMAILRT
# UniProt Q70IA6: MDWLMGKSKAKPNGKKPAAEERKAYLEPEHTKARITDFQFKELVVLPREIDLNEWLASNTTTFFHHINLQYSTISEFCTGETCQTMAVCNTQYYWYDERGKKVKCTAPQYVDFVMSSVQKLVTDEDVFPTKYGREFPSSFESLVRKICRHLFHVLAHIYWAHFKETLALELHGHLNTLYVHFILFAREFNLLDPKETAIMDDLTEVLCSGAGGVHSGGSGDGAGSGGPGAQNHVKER
# UniProt Q9UI43: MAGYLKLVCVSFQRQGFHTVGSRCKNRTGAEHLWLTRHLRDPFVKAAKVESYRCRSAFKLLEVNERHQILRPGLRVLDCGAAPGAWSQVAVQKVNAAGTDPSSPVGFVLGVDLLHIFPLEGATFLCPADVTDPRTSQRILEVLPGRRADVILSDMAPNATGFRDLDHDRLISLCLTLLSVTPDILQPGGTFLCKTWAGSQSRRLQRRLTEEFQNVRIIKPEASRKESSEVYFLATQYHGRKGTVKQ
# UniProt Q9NPA3, whole entry, looked up: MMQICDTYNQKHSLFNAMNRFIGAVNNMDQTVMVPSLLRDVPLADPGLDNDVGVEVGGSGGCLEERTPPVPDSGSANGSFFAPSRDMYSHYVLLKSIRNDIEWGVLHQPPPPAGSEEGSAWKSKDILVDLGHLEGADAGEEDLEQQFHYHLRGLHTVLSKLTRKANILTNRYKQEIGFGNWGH
# This is one part of the list.
# How the values were obtained:
# Assay in all cases: log2 fold change, soluble protein after heating vs DMSO (PISA); higher = thermal stabilisation; K562 cells, 10 uM, 30 min; active = over 0.2 and 3.5 SD of the protein, either way, in both replicates (recomputed)
# [1] = compound: C[C@@H](Oc1cc(-c2cnn(C3CCNCC3)c2)cnc1N)c1c(Cl)ccc(F)c1Cl [crizotinib]
# How it was run: (§1)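 Quantification of soluble protein used TMTpro 16plex LC-MS/MS, with channel sums equalised. Samples were the supernatant after 21,000xg for 90 min of pooled aliquots from K562 cells (2×10^6 cells/mL) treated with 10 μM compound for 30 min, heated for 3 min over 48°C-58°C, and extracted in PBS with 0.5% NP-40 at 4°C. Values, from duplicates, describe thermal stability against control samples on a log2 fold-change scale.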
# [2] = compound: C[C@@H]1COCCN1C2=NC(=NC(=C2)C3(CC3)S(=O)(=O)C)C4=C5C=CNC5=CC=C4
# How it was run: as §1
# [3] = compound: C[C@H](C1=CC=C(C=C1)C(=O)NC2=C3C=CNC3=NC=C2)N
# How it was run: as §1
# [4] = compound: C[C@H](Nc1ncnc2nc[nH]c12)c1cc2cccc(Cl)c2c(=O)n1-c1ccccc1 [duvelisib]
# How it was run: as §1
# [5] = compound: Cc1cc(Nc2cc(CN3CCOCC3)c3nc(C)c(Cc4ccc(Cl)cc4F)n3n2)n[nH]1 [gandotinib]
# How it was run: as §1
# [6] = compound: Cc1cc(Nc2cc(N3CCN(C)CC3)nc(Sc3ccc(NC(=O)C4CC4)cc3)n2)n[nH]1 [tozasertib]
# How it was run: as §1
# [7] = compound: Cc1cc(SCc2sc(-c3ccc(C(F)(F)F)cc3)nc2C)ccc1OCC(=O)O
# How it was run: as §1
# [8] = compound: Cc1ccc(-n2nc(C(C)(C)C)cc2NC(=O)Nc2ccc(OCCN3CCOCC3)c3ccccc23)cc1 [doramapimod]
# How it was run: as §1
# [9] = compound: Cc1ccc(C(=O)N(CCCN)[C@@H](c2nc3cc(Cl)ccc3c(=O)n2Cc2ccccc2)C(C)C)cc1 [ispinesib]
# How it was run: as §1
# [10] = compound: Cc1ccc(NC(=O)c2ccc(CN3CC[C@H](N(C)C)C3)c(C(F)(F)F)c2)cc1Nc1nccc(-c2cncnc2)n1 [bafetinib]
# How it was run: as §1
# [11] = compound: Cc1cccc(CC(=O)N2CCc3c2ccc(-c2cn(C)c4ncnc(N)c24)c3F)n1
# How it was run: as §1
# [12] = compound: Cc1nc(Nc2ncc(C(=O)Nc3c(C)cccc3Cl)s2)cc(N2CCN(CCO)CC2)n1 [dasatinib]
# How it was run: as §1
# [13] = compound: Cn1cc(-c2ccc3c(c2)CCN3C(=O)Cc2cccc(C(F)(F)F)c2)c2c(N)ncnc21
# How it was run: as §1
# [14] = compound: Cn1cc(-c2ccc3nnc(C(F)(F)c4ccc5ncccc5c4)n3n2)cn1
# How it was run: as §1
# [15] = compound: FC(F)(F)c1ccc(/C=C/c2nc(COc3ccc(CCCCn4ccnn4)cc3)co2)cc1 [mubritinib]
# How it was run: as §1
# [16] = compound: CS(=O)(=O)c1ccc(-c2cnc(N)c(C(=O)Nc3ccccc3)n2)cc1
# How it was run: as §1
# [17] = compound: Cc1cn(-c2cc(NC(=O)c3ccc(C)c(Nc4nccc(-c5cccnc5)n4)c3)cc(C(F)(F)F)c2)cn1 [nilotinib]
# How it was run: as §1
# [18] = compound: Cc1nc(Nc2n[nH]c3c2CN(C(=O)N[C@H](CN(C)C)c2ccccc2)C3(C)C)c2sccc2n1
# How it was run: as §1
# [19] = compound: Cc1ncc(-c2ccnc(Nc3ccc(S(C)(=O)=O)cc3)n2)n1C(C)C
# How it was run: as §1
# [20] = compound: Cn1cncc1[C@@](N)(c1ccc(Cl)cc1)c1ccc2c(c1)c(-c1cccc(Cl)c1)cc(=O)n2C [tipifarnib]
# How it was run: as §1
Target,log2 fold change [1],log2 fold change [2],log2 fold change [3],log2 fold change [4],log2 fold change [5],log2 fold change [6],log2 fold change [7],log2 fold change [8],log2 fold change [9],log2 fold change [10],log2 fold change [11],log2 fold change [12],log2 fold change [13],log2 fold change [14],log2 fold change [15],log2 fold change [16],log2 fold change [17],log2 fold change [18],log2 fold change [19],log2 fold change [20]
MICAL2 (UniProt O94851),inactive: 0.159,inactive: -0.166,inactive: 0.266,inactive: -0.018,inactive: 0.035,inactive: 0.103,inactive: 0.176,inactive: -0.12,inactive: -0.348,inactive: 0.023,inactive: -0.066,inactive: -0.053,inactive: -0.076,inactive: 0,inactive: -0.414,,,,,
MINDY4 (UniProt Q4G0A6),,,,,,,,,inactive: -0.019,,,,,inactive: -0.017,,inactive: 0.093,,,,
MOCS2 (UniProt O96033),,,inactive: 0.074,inactive: 0.081,inactive: -0.075,inactive: -0.021,inactive: -0.105,,,,inactive: 0.143,inactive: -0.063,inactive: 0.006,,,inactive: 0.129,,,,
MRAS (UniProt O14807),inactive: 0.128,,,,inactive: -0.17,,,inactive: 0,,inactive: -0.024,inactive: -0.2,,,,inactive: -0.058,,inactive: -0.001,inactive: -0.005,inactive: -0.027,
MPC1 (UniProt Q9Y5U8),,,inactive: -0.158,inactive: -0.061,,inactive: 0.072,inactive: -0.207,,inactive: 0.1,inactive: 0.127,,inactive: -0.038,inactive: 0.243,inactive: 0.035,inactive: -0.005,inactive: -0.106,inactive: -0.116,inactive: 0.005,inactive: -0.021,inactive: -0.177
MINDY2 (UniProt Q8NBR6),,inactive: 0.063,inactive: 0.073,,,inactive: 0.075,,,,,,,inactive: -0.132,,inactive: 0.037,,,,,
MORC2 (UniProt Q9Y6X9),inactive: 0.027,inactive: 0.065,,,,,,inactive: -0.042,,inactive: -0.036,,,,,inactive: 0.126,,,,,inactive: 0.018
MMTAG2 (UniProt Q9BU76),inactive: 0,,inactive: 0.213,inactive: -0.037,inactive: 0.22,inactive: 0.145,inactive: -0.075,inactive: 0.092,inactive: -0.096,inactive: 0.168,inactive: -0.053,inactive: 0.122,inactive: -0.173,inactive: -0.155,inactive: -0.068,inactive: -0.163,inactive: 0.023,inactive: 0.088,inactive: -0.036,inactive: 0.078
MLH1 (UniProt P40692),,inactive: 0.042,inactive: -0.127,,inactive: -0.068,,inactive: 0.094,,,inactive: -0.063,inactive: 0.035,inactive: -0.212,inactive: 0.005,,inactive: -0.073,,,,,inactive: 0.047
MPV17 (UniProt P39210),,inactive: 0.27,inactive: -0.133,,inactive: 0.047,inactive: 0.016,,,inactive: -0.015,inactive: 0.061,inactive: -0.044,,inactive: 0.05,inactive: 0.204,inactive: 0.029,inactive: 0.059,inactive: 0.051,inactive: 0.1,inactive: 0.02,inactive: 0.05
MMADHC (UniProt Q9H3L0),inactive: 0.065,,inactive: 0.093,,inactive: -0.087,,inactive: 0.084,inactive: 0.099,inactive: -0.038,inactive: 0.038,inactive: 0.054,inactive: -0.155,inactive: -0.138,inactive: -0.063,inactive: -0.005,,inactive: -0.068,inactive: -0.173,inactive: 0.023,inactive: 0.024
MME (UniProt P08473),,,,inactive: -0.241,,,inactive: 0.146,,,inactive: -0.212,,inactive: -0.325,,,inactive: 0.092,,,,,
MKKS (UniProt Q9HB66),,inactive: 0.279,inactive: -0.153,inactive: -0.033,inactive: 0.052,inactive: 0.027,inactive: -0.015,,,inactive: -0.029,inactive: -0.053,inactive: 0.012,inactive: -0.031,,inactive: 0.043,inactive: 0.009,inactive: 0.042,inactive: -0.006,inactive: -0.072,
MOSPD1 isoform 3 (UniProt Q9UJG1),,,,,inactive: -0.131,,,,,,inactive: 0.065,,,,inactive: 0.368,,inactive: -0.19,inactive: 0.08,inactive: 0.253,
MOB2 isoform 3 (UniProt Q70IA6),,inactive: -0.166,inactive: 0.044,,inactive: -0.093,,,,inactive: -0.025,inactive: 0.005,inactive: -0.039,,inactive: -0.069,inactive: 0.056,inactive: -0.108,,inactive: -0.133,active: -1.47,inactive: 0.03,inactive: 0.013
MRPL52 (UniProt Q86TS9),,,,inactive: 0.041,,,inactive: 0.179,,,,,inactive: 0.116,,,,inactive: -0.153,,,,
MR1 (UniProt Q95460),inactive: -0.215,inactive: -0.03,,,,,,inactive: -0.008,,,,,,,inactive: 0.054,,,,,
MRM2 (UniProt Q9UI43),,,inactive: -0.042,,,,inactive: 0.123,,,,,inactive: -0.381,inactive: 0.164,,,,inactive: -0.069,inactive: -0.049,inactive: 0.043,inactive: -0.011
MID1IP1 (UniProt Q9NPA3),inactive: 0.083,inactive: 0.158,,inactive: 0.023,inactive: -0.034,inactive: 0.169,inactive: 0,inactive: 0.133,inactive: 0.067,inactive: 0.015,inactive: -0.071,inactive: -0.02,,inactive: 0.022,inactive: -0.306,inactive: 0.154,inactive: -0.019,inactive: -0.056,inactive: 0.002,inactive: 0.105

# Reprinted at random: 2 records from the list.
Target,log2 fold change [1],log2 fold change [2],log2 fold change [3],log2 fold change [4],log2 fold change [5],log2 fold change [6],log2 fold change [7],log2 fold change [8],log2 fold change [9],log2 fold change [10],log2 fold change [11],log2 fold change [12],log2 fold change [13],log2 fold change [14],log2 fold change [15],log2 fold change [16],log2 fold change [17],log2 fold change [18],log2 fold change [19],log2 fold change [20]
MID1IP1 (UniProt Q9NPA3),inactive: 0.083,inactive: 0.158,,inactive: 0.023,inactive: -0.034,inactive: 0.169,inactive: 0,inactive: 0.133,inactive: 0.067,inactive: 0.015,inactive: -0.071,inactive: -0.02,,inactive: 0.022,inactive: -0.306,inactive: 0.154,inactive: -0.019,inactive: -0.056,inactive: 0.002,inactive: 0.105
MRPL52 (UniProt Q86TS9),,,,inactive: 0.041,,,inactive: 0.179,,,,,inactive: 0.116,,,,inactive: -0.153,,,,
